Literature values, collected in patent US20100240745A1, “METHOD OF TREATMENT OF INFLAMMATION IN HYPERTENSIVE PATIENTS” (NICOX S.A., priority 2009, published 2010).
Some entries share one result that the patent states for a list of compounds.

Conditions: hypertensive patients; by as much as; cited from earlier work

SMILES: CC(C)Cc1ccc(C(C)C(=O)O)cc1 (stereo not shown) [ibuprofen]
- increase in mean arterial pressure: 5 to 6 mmHg
